The text below walks through data of the supplement of paper PMC12819154, “High-throughput peptide-centric local stability assay extends protein–ligand identification to membrane proteins, tissues and bacteria” (Nature Structural & Molecular Biology, 2025).

Chains of the proteins cited; added tags and fusions are not shown. Lines headed by an entry give the natural chain unless they say otherwise; changes in a name come on top.
UniProt Q96LW9: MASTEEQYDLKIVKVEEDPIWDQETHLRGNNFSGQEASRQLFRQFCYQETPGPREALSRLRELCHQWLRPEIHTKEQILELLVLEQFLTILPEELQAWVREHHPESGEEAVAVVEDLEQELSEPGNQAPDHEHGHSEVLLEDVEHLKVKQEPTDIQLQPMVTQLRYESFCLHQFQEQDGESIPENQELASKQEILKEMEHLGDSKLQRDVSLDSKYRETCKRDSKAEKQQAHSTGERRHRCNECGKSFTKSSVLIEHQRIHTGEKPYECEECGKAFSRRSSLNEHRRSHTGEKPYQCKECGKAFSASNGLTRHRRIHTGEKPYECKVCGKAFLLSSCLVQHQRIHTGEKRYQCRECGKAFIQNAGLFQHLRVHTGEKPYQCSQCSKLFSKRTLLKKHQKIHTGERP
UniProt Q96R06: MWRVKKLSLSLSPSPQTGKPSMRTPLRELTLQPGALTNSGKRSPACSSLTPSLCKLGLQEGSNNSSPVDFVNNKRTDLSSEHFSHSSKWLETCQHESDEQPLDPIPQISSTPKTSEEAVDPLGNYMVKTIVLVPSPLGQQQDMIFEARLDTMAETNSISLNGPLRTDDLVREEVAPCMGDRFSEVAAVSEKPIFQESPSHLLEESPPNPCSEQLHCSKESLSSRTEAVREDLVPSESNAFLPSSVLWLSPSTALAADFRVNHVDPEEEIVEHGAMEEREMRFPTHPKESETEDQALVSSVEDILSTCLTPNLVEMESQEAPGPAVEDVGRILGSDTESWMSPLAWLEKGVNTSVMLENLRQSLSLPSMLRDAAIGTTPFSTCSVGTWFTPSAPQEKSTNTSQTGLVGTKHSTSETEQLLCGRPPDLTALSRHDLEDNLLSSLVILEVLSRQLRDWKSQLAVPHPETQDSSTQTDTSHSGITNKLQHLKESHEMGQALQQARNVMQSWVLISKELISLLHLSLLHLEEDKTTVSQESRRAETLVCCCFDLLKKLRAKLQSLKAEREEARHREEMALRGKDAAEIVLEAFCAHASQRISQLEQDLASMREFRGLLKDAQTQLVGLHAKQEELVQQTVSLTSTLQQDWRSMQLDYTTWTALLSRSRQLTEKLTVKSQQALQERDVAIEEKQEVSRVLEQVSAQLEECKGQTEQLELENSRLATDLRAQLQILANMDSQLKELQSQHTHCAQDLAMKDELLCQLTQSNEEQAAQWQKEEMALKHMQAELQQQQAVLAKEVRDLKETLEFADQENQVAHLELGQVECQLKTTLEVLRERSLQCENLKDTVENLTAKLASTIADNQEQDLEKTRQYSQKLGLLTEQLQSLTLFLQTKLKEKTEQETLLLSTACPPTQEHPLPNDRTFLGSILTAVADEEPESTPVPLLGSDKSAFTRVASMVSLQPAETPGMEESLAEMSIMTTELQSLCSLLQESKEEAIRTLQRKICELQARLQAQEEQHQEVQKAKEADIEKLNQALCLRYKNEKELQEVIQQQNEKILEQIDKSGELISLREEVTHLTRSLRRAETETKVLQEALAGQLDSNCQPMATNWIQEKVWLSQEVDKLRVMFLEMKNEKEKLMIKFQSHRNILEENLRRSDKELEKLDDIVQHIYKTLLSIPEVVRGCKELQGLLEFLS
UniProt Q96IY1: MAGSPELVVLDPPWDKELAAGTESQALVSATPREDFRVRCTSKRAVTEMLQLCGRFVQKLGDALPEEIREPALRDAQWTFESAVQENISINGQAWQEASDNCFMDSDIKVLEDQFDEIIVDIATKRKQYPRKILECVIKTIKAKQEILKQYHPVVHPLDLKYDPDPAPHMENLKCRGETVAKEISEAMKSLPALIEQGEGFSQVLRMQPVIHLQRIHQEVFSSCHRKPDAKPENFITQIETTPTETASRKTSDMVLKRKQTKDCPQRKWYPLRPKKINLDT
UniProt Q96NW4, whole entry: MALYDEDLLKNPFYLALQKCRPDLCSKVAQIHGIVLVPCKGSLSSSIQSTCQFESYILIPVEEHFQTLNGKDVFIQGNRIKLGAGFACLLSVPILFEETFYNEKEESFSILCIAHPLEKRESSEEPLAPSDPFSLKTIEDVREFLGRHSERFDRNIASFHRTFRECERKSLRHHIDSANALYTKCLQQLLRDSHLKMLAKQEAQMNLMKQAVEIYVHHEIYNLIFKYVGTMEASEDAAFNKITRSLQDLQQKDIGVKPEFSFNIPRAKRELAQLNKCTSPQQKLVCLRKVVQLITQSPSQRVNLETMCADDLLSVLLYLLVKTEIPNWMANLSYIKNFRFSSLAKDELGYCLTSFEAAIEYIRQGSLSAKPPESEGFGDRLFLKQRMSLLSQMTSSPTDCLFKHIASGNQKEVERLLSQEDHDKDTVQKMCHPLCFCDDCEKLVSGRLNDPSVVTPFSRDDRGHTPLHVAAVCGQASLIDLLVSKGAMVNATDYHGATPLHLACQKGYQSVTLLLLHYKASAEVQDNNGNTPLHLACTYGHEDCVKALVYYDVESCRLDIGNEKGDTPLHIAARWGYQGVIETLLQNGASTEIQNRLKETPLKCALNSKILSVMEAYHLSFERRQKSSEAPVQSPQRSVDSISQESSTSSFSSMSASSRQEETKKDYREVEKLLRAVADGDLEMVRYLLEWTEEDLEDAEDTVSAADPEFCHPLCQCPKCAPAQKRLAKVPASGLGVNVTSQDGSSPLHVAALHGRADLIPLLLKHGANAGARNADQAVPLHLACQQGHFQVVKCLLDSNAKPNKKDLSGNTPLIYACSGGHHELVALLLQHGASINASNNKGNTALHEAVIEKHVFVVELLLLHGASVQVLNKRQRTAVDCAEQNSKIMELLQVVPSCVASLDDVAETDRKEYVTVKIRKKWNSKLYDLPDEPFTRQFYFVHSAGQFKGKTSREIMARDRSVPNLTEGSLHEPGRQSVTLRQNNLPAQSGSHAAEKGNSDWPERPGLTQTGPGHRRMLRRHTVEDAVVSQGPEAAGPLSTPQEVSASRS
UniProt Q96MD2: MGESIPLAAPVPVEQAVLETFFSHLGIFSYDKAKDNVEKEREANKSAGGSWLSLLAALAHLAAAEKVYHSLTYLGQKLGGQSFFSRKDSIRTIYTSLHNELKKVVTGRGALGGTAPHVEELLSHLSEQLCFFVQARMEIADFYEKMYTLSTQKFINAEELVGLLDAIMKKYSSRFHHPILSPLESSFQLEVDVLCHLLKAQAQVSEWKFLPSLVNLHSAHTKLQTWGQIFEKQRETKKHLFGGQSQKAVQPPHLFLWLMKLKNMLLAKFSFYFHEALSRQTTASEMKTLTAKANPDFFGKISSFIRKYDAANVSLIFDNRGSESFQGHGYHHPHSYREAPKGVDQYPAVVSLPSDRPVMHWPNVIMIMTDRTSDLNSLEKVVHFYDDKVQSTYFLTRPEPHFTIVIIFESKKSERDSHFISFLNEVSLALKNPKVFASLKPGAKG
UniProt Q96NL8: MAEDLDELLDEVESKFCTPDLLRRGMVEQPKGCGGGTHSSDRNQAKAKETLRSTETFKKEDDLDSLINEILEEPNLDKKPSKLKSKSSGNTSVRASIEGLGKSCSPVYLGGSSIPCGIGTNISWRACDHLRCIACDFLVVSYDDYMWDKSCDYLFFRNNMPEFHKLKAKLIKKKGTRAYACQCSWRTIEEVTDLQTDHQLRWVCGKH

The other results are listed elsewhere or left out. Most entries show no effect beyond the scatter of the controls.

Compound in the test: CN[C@@H]1C[C@H]2O[C@@](C)([C@@H]1OC)n1c3ccccc3c3c4c(c5c6ccccc6n2c5c31)C(=O)NC4 [staurosporine]
The test is described as follows: log2 fold change of tryptic peptide abundance, ligand vs vehicle (limited proteolysis) (log2 ratio); higher = more trypsin-susceptible (destabilized). The settings on record: ligand concentration: 20 uM; sample: K562 cleared lysate; digestion: 4 min, 22 C (HT-PELSA RT4min, Orbitrap Astral).
“UniProt Q96LW9 (peptide sequence: SSVLIEHQR, peptide start residue: 251)”: the log2 fold change came to 0.255.
“SPAG5 (peptide sequence: AKEADIEKLNQALCLR, peptide start residue: 1022) (UniProt Q96R06)”: the log2 fold change is -1.34.
Consider “NSL1 (peptide sequence: IHQEVFSSCHR, peptide start residue: 216) (UniProt Q96IY1)”, for which the log2 fold change turned out to be 0.242.
As for “PNKP (peptide sequence: LGVPFQVLVATHAGLYR, peptide start residue: 243) (UniProt Q96T60)”, the log2 fold change is 0.238.
For “ANKRD27 (peptide sequence: NADQAVPLHLACQQGHFQVVK, peptide start residue: 774) (UniProt Q96NW4)”, the log2 fold change is -0.267.
For “UniProt Q96MD2 (peptide sequence: VYHSLTYLGQK, peptide start residue: 67)” the value was 0.18; for “C8orf37 (peptide sequence: EDDLDSLINEILEEPNLDKKPSK, peptide start residue: 60) (UniProt Q96NL8)”, 0.309.
To “UniProt Q96S19 (peptide sequence: VLEVASGSGQHAAHFAR, peptide start residue: 31)” belongs 0.175.
